# Results taken from the supplement of paper PMC6411743.
# ± gives the standard deviation of the averaged measurements. Some of the results follow.
# Target: T1, UniProt Q9BUA3
# T1 sequence (whole entry): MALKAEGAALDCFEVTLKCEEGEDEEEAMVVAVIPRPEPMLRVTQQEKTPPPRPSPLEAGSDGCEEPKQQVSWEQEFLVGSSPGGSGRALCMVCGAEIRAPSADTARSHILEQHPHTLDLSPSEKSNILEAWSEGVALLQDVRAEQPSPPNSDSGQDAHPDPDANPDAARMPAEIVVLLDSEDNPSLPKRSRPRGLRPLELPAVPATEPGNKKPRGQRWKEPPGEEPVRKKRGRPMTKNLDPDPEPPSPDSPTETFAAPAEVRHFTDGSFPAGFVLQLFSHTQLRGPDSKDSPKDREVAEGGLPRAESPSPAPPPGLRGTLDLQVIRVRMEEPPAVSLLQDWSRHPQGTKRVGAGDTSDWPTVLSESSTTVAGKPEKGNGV
# Assay: NP40-soluble protein abundance relative to vehicle (solubility fold change) (ratio); higher = more soluble protein in presence of GTP
# Description: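 Solubility proteome profiling in Jurkat crude lysate. Lysate was treated with Mg-GTP (0.1-10 mM) for 10 min at room temperature and 3 min at 37 °C, then solubilised with 0.8% NP40 and benzonase, followed by ultracentrifugation. Proteins were quantified by TMT10 LC-MS/MS; the value is the NP40-soluble abundance relative to the NP40-processed vehicle, from 3 independent experiments.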
smiles,measurement,setting,value
Nc1nc2c(ncn2[C@@H]2O[C@H](COP(=O)(O)OP(=O)(O)OP(=O)(O)O)[C@@H](O)[C@H]2O)c(=O)[nH]1 [guanosine triphosphate],NP40-soluble protein abundance,concentration: 0.1mM,0.958 ± 0.025
same,NP40-soluble protein abundance,concentration: 0.5mM,0.971 ± 0.054
same,NP40-soluble protein abundance,concentration: 1mM,1.02 ± 0.11
same,NP40-soluble protein abundance,concentration: 2mM,0.983 ± 0.091
same,NP40-soluble protein abundance,concentration: 4mM,0.989 ± 0.1
same,NP40-soluble protein abundance,concentration: 6mM,0.982 ± 0.1
same,NP40-soluble protein abundance,concentration: 8mM,1.02 ± 0.096
same,NP40-soluble protein abundance,concentration: 10mM,1.03 ± 0.066
